Changes are numbered by the printed parent chain. Results are given in words; binding and its absence hold for the method and conditions named. Binding seen in cells or lysates may run through a third protein. For some assays here: Binding can be weak; no strength is given. For some assays here: Tags and fused reporters may be left off the sequences shown.
What was measured:
[1] = target: T1, cystatin SN (CST1), recombinant human protein (human) (UniProt P01037); experiment: co-IP; purified His-tagged extracellular segments with or without recombinant CST1; precipitated with anti-CST1 antibody; western blot with anti-His; both purified
T1 sequence: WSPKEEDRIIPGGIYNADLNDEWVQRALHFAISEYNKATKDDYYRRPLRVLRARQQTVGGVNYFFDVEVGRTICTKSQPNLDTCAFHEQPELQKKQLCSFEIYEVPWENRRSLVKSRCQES

Sequences of proteins named here, by UniProt entry; tags and fusion partners are left off. A change or cut given only in a name is not applied to a line headed by its entry.
UniProt D4A109: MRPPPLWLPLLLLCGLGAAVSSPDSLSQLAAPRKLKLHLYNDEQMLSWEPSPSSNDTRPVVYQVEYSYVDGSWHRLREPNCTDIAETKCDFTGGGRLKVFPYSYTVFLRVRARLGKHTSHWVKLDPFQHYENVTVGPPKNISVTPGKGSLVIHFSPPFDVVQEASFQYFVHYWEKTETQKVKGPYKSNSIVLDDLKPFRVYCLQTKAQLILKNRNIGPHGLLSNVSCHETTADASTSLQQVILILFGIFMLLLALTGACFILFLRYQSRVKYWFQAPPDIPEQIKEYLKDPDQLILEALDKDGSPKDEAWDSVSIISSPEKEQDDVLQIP

[2] = target: T2, CST1 Mut 1 (deletion of the motif aa 76-80), His-tagged (human) (UniProt P01037); experiment: co-IP; wild-type or His-tagged mutant CST1 proteins with IFNGR1; western blot with anti-His; precipitating antibody not told; both purified
T2 sequence: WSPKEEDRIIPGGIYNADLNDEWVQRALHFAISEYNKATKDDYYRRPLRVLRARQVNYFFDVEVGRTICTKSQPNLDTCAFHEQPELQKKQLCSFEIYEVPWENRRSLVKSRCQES

[3] = target: T3, CST1 Mut 2 (disulfide bond aa 94,104 mutated from cysteine to glycine), His-tagged (human) (UniProt P01037); experiment: as above
T3 sequence: T1 sequence with C74G, C84G

[4] = target: T4, CST1 Mut 3 (disulfide bond aa 118,138 mutated from cysteine to glycine), His-tagged (human) (UniProt P01037); experiment: as above
T4 sequence: T1 sequence with C98G, C118G

[5] = target: T1, cystatin SN (CST1), recombinant human protein (human); experiment: as above
[6] = target: T1, cystatin SN (CST1), recombinant human protein (human); experiment: co-IP; recombinant proteins CST1, IFNGR1, IFNGR2; precipitated with anti-CST1 antibody (Rat IgG as negative control); western blot with anti-CST1, anti-IFNGR1 or anti-IFNGR2; both purified

For “IFNGR2-EC, His-tagged IFNGR2 extracellular segment (aa: 1-240) (from UniProt D4A109) (domain or fragment)”, the binding [1] was “binds”.

“IFNGR1-EC, His-tagged IFNGR1 extracellular segment (aa: 1-241) (rat) (domain or fragment)” was tested, and the binding [1] was “binds”.

In the case of recombinant IFNGR1 protein (receptor), the binding [2] is reported as “no binding”, the binding [3] is reported as “no binding” and the binding [4] is reported as “no binding”. The binding [5] was “binds” and the binding [6] was “binds”.

In the case of recombinant IFNGR2 protein (receptor), the binding [6] is reported as “binds”.

— paper PMC9892047
